In PubChem BioAssay (NCATS):
Several values for one entry are separate records, joined by “and”; a condition that tells them apart may be missing. Identical values can stand only once. The list shows a part of the results. The main result of the screen is listed elsewhere. These columns were measured beside it and carry no call. Most of these compounds were active or inconclusive in the main read-out, so they are no random draw. Words in brackets tell the shape of the fitted curve; partial curves, single points and poor fits give uncertain potencies.

Columns and labels:
[1] = Validation of Assay for Modulators of Lamin A Splicing (AID 1459); settings: Lamin A splicing dual RFP/GFP fluorescence reporter, ratio
Outline: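 Readout: ratio of GFP (500-530 nm) to RFP (575-640 nm) total object intensity by 488 nm laser-scanning cytometry after 48 hrs. Cells were HeLa S3 clones carrying lamin A-EGFP minigene plus DsRed2 viability reporter; vehicle 0.5% DMSO final.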

[2] = qHTS Assay for Modulators of Human Peripheral Myelin Protein 22 (PMP22) Expression/Activity (AID 1967); settings: Cell-based PMP22 reporter, dual-color luciferase ratio
Outline: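 Mouse MSC80 Schwann line, Pmp22 promoter–CBG68 reporter, EF-alpha–CBR internal control. 24h compound exposure, 37 °C/5% CO2, DMEM + 10% FBS. Readout: corrected green/red luminescence ratio, normalized to untreated cells; concentration-response curves fitted and classified.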

[3] = Nrf2 qHTS screen for inhibitors: Validation (AID 493153); settings: A549 ARE-Fluc reporter, 18-24 h; AC50: CellTiter-Fluor fluorescence read, measured here: cytotoxicity CellTiter-Fluor AC50; viability change: measured here: cytotoxicity max response
Outline: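 Concentration-response test in A549 ARE_Fluc reporter cells (5% FBS OPTI-MEM), compound exposure 18-24 h at 37°C, 5% CO2. Cell viability measured first by CellTiter-Fluor fluorescence; ARE-driven luciferase luminescence then measured as Nrf2 activity.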

[4] = qHTS Assay for Lipid Storage Modulators (AID 1519); settings: Drosophila S3 cells, BODIPY lipid droplet/cell ratio, laser cytometry, cells loaded with oleic acid
Outline: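 Cells seeded at 5,000 per well were treated with compounds over a concentration series and loaded with oleic acid (400 uM, as added). Lipid droplet fluorescence (488 nm excitation, 500-530 nm channel) was read by laser-scanning cytometry and normalized to 20 uM Triacsin C.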

[5] = qHTS Validation Assay to Find Inhibitors of Chronic Active B-Cell Receptor Signaling (AID 485345); settings: ABC-DLBCL cells, chronic BCR signaling reporter
Outline: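 TMD8 ABC-DLBCL cells with dox-inducible green luciferase–IκBα fusion and red native luciferase; compounds 46 uM–3 nM, 4 h at 37C with doxycycline in 0.5% FBS IMDM. Green/red ratio normalized to basal and 10 uM MG-132.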

[6] = qHTS Assay for Inhibitors of PDE-IV (AID 607); settings: HEK293 ACTOne CNG channel cells, membrane potential fluorescence; measured here: parental cell counter-screen
Outline: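 The readout is membrane depolarisation from a cAMP-sensing CNG channel, detected with a potential dye at ex 535/em 590. Cells were HEK293-derived (endogenous PDE-IV) at 1000 cells/well, titrated up to 22.9 uM final.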

[7] = measured here: green reporter channel AC50, mouse Pmp22 promoter in mouse Schwann cells
[8] = measured here: red reporter channel AC50, EF-alpha promoter control reporter in MSC80 mouse Schwann cells
[9] = measured here: cell count channel max response
[10] = measured here: cell number channel AC50
[11] = measured here: lipid (BODIPY) channel AC50
[12] = measured here: lipid channel max response
[13] = measured here: CBR control luciferase (viability counter)

CN1C2CCC1CC(OC(c1ccccc1)c1ccc(Cl)cc1)C2 (configuration not stated)
AC50 ([1]; measured here: GFP channel): 15.8 µM [falling, single point]
AC50 ([1]; measured here: RFP channel): 22.4 µM [falling, partial curve]
AC50 [2, 7]: 16.9 µM [falling, full curve]
AC50 [2, 8]: 15.1 µM [falling, full curve]

CCN(CCCl)Cc1ccccc1Br
AC50 ([1]; measured here: GFP channel): 12.6 µM [falling, partial curve, poor fit]
AC50 ([1]; measured here: RFP channel): 14.1 µM [falling, partial curve]
viability change [3]: 1.79%

C[N+](C)(C)CCOC(=O)CBr
AC50 ([1]; measured here: GFP channel): 35.5 µM [rising, single point]
max response [4, 9]: -18.9%
AC50 [4, 10]: 2.82 µM [falling, full curve, poor fit]
AC50 [4, 11]: 2.82 µM [falling, full curve, poor fit]
max response [4, 12]: -17.6%

COc1cc([C@@H]2c3cc4c(cc3[C@H](O)C3COC(=O)[C@@H]32)OCO4)cc(OC)c1OC (some centres not stated)
AC50 ([1]; measured here: GFP channel): 0.0447 µM [falling, full curve]
AC50 ([1]; measured here: RFP channel): 0.0501 µM [falling, full curve]
max response [4, 9]: 50.3%
max response [4, 12]: 52.2%
AC50 [5, 13]: 0.103 µM [rising, full curve]
AC50 [3]: 0.013 µM [falling, full curve]
viability change [3]: -27.3%

C[N+]1(C)C2CCC1CC(OC(=O)c1c[nH]c3ccccc13)C2 (configuration not stated)
AC50 ([1]; measured here: GFP channel): 35.5 µM [falling, single point]
AC50 ([1]; measured here: RFP channel): 25.1 µM [falling, single point]
max response [4, 9]: 44.1%
max response [4, 12]: 41%
AC50 [2, 7]: 53.6 µM [falling, partial curve]
AC50 [2, 8]: 75.7 µM [falling, single point]

Clc1ccc(C(c2ccc(Cl)cc2)n2cc[n+](CC(OCc3ccc(Cl)cc3Cl)c3ccc(Cl)cc3Cl)c2)cc1 (configuration not stated)
AC50 ([1]; measured here: GFP channel): 14.1 µM [falling, partial curve]
AC50 ([1]; measured here: RFP channel): 14.1 µM [falling, partial curve]
max response [4, 9]: -103%
max response [4, 12]: -112%
AC50 [2, 7]: 37.9 µM [falling, full curve]
AC50 [2, 8]: 37.9 µM [falling, full curve]
AC50 [3]: 18.4 µM [falling, partial curve, poor fit]
viability change [3]: -26.9%

CCc1c(C(=O)OC)ncc2[nH]c3cc(OC)c(OC)cc3c12
AC50 ([1]; measured here: GFP channel): 7.94 µM [falling, partial curve]
max response [4, 9]: 66%
max response [4, 12]: 70%
AC50 [2, 7]: 53.6 µM [falling, partial curve]
AC50 [2, 8]: 37.9 µM [falling, partial curve]

O=C(OC1CCN(CCCl)CC1)C(c1ccccc1)c1ccccc1
AC50 ([1]; measured here: GFP channel): 12.6 µM [falling, partial curve, poor fit]
AC50 [2, 7]: 67.5 µM [falling, partial curve]
AC50 [2, 8]: 67.5 µM [falling, partial curve]

CC[C@H](CO)Nc1nc(NCc2ccccc2)c2ncn(C(C)C)c2n1
AC50 ([1]; measured here: GFP channel): 15.8 µM [falling, partial curve]
AC50 ([1]; measured here: RFP channel): 17.8 µM [falling, partial curve]
AC50 [2, 7]: 84.9 µM [falling, single point]
AC50 [2, 8]: 37.9 µM [falling, full curve]

C/C=C(/C)C(=O)O[C@H]1C(C)=C2C([C@@H]1OC(=O)CCCCCCC)[C@@](C)(OC(C)=O)C[C@@H](OC(=O)CCC)[C@@]1(O)[C@H]2OC(=O)[C@@]1(C)O (some centres not stated)
AC50 ([1]; measured here: RFP channel): 35.5 µM [falling, single point]
max response [4, 9]: -42%
AC50 [4, 10]: 35.5 µM [falling, single point]
AC50 [4, 11]: 39.8 µM [falling, partial curve, poor fit]
max response [4, 12]: -103%
AC50 [2, 7]: 0.0675 µM [falling, full curve]
AC50 [2, 8]: 0.0601 µM [falling, full curve]

CCCCCCC(C)(C)c1ccc([C@@H]2C[C@H](O)CC[C@H]2CCCO)c(O)c1
AC50 ([1]; measured here: GFP channel): 14.1 µM [rising, single point]
AC50 ([1]; measured here: RFP channel): 14.1 µM [rising, single point]
AC50 [2, 7]: 33.8 µM [falling, full curve]
AC50 [2, 8]: 30.1 µM [falling, full curve]

Cc1c2ccncc2c(C)c2c1[nH]c1ccccc12
AC50 [6]: 1.26 µM [falling, full curve, poor fit]
AC50 ([1]; measured here: GFP channel): 11.2 µM [falling, partial curve]
AC50 ([1]; measured here: RFP channel): 12.6 µM [falling, partial curve]
max response [4, 9]: -12.4% and 52.1%
max response [4, 12]: -46% and 50.1%
AC50 [2, 7]: 53.6 µM [falling, partial curve, poor fit]
AC50 [2, 8]: 7.57 µM [falling, partial curve]
AC50 ([5]; measured here: CBG/CBR ratio read-out): 29.1 µM [falling, single point]
AC50 [5, 13]: 2.06 µM [falling, full curve]
AC50 [3]: 10.3 µM [falling, partial curve]
viability change [3]: -33.9%
